The list shows a part of the results.

This assay concerns the target T1, OsSMF1 (Oryza sativa, UniProt Q6ZLB0 1-436).
T1 sequence: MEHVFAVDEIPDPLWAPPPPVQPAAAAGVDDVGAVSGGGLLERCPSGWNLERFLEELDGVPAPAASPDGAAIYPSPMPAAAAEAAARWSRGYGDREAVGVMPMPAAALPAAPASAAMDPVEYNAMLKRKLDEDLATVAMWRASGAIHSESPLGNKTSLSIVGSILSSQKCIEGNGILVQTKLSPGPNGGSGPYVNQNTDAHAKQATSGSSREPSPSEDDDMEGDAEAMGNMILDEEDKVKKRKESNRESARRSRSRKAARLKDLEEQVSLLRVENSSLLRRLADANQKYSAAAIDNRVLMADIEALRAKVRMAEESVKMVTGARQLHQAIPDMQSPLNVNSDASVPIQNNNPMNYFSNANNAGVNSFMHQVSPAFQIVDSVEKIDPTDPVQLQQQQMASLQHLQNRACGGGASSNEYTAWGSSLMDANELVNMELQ
The assay can be described thus: protein-binding microarray (RPBM); PBS, 2% BSA, 51.3 ng/ul salmon testes DNA, 50 uM zinc acetate, 200 nM TF, 25 C, 1 h; high values mean tight binding. The conditions noted are these: protein: recombinant; tags: N-terminal polyhistidine and DsRed monomer fusion (pET32a); chain copies: 2; label: CyDye5-dUTP incorporated in the synthesized complementary strand; 3' TTTTT single-stranded linker to array surface; dsDNA, one strand shown. The method, boiled down: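 Using Ni–NTA, transcription factors fused N-terminally to polyhistidine and DsRed were purified after expression in E. coli BL21-CodonPlus. These were incubated at 200 nM with a blocked, double-stranded custom Agilent array for 1 h at 25 °C in a buffer containing 50 µM zinc acetate, and the array was washed. The binding signal is per-feature fluorescence intensity (arbitrary units) on an Axon 4000B scanner.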
“AGTACGCTTCTACAGTCTGGATCTGCGTGCCTGGCACGAACGGAGTCACCTAGTGCAG”: the binding signal was 3190 fluorescence intensity (a.u.). As to “CCCGAGAGCGAACGGCCGTCTGCCACGTCATTTTCGCCGCCGGAGTCACCTAGTGCAG”, the binding signal was 29700 fluorescence intensity (a.u.). In the case of “TGGATCTCTGTCACCGTGTACCGTGATACGCCAAAACCCGCGGAGTCACCTAGTGCAG” it was 4890 fluorescence intensity (a.u.); in that of “GGGGCTCCCGGAGCACGGCGATGGCCACGTGAGGTACCTGCGGAGTCACCTAGTGCAG”, 3400 fluorescence intensity (a.u.). For “ATAAGTCTATGGCTAGTTTTAGCATTTAATGTCTTATGGCCGGAGTCACCTAGTGCAG” the value was 3970 fluorescence intensity (a.u.). In the case of “ACGATCCAGACACATCACATGTGGCCCCATGCTTCCATCCCGGAGTCACCTAGTGCAG”, the binding signal was 5170 fluorescence intensity (a.u.). In the case of “GCGGGGCGGTGACAACGACGGCGGTGCGGGGCGGTGGTGACGGAGTCACCTAGTGCAG” it was 7540 fluorescence intensity (a.u.); in that of “GATAAGCTGATTCGGTCGAAATGTTAGGTGGTTTCTCAAGCGGAGTCACCTAGTGCAG”, 3190 fluorescence intensity (a.u.); in that of “CTGCTATCGTACACCATAGCAATGCCACGTGTTAGAATATCGGAGTCACCTAGTGCAG”, 9800 fluorescence intensity (a.u.). For “GAGGTAATCGACCTCATCACTGTCAATGATGTGGAGCGCACGGAGTCACCTAGTGCAG” the value was 3940 fluorescence intensity (a.u.); for “TCCATACATTATTGACGTAATCATAAATATACATCCATGTCGGAGTCACCTAGTGCAG”, 3360 fluorescence intensity (a.u.).

As to “ACCGCCACGTGGACAAGCTCACGATCACGTGCCGCTCACGCGGAGTCACCTAGTGCAG”, the binding signal is 4790 fluorescence intensity (a.u.). For “TAAAGATGTCTTTTGTTGGGTGGGAAATCATTTTCATTTCCGGAGTCACCTAGTGCAG” the value was 3160 fluorescence intensity (a.u.); for “GAAGAAAATGGAGTTAGATGATGTCAAACTGCATGTGATCCGGAGTCACCTAGTGCAG”, 3550 fluorescence intensity (a.u.). For “AAACCCGCCTACCGGGTATGACGTTATTTAAGTACCTGAGCGGAGTCACCTAGTGCAG” the value was 3540 fluorescence intensity (a.u.); for “CCCCTTCCACCACCTCCGCCGACACGAACGTCAGCACCGCCGGAGTCACCTAGTGCAG”, 8380 fluorescence intensity (a.u.). For “TCACTGTATAACAGCTCACCGCTCGTCACTGACAACGGCACGGAGTCACCTAGTGCAG” the value was 3390 fluorescence intensity (a.u.); for “GAAACAAACACATCAGATGACGTTTGTTGAAATGCCTAACCGGAGTCACCTAGTGCAG”, 5000 fluorescence intensity (a.u.). Take “ACGGAGGGAGTATTTGGACTTATTACACATACCGGTTTTGCGGAGTCACCTAGTGCAG”: the binding signal is 3500 fluorescence intensity (a.u.). In the case of “ATGGATAACGAAGACGTTATAGAAGGTGATGACTAGCCGTCGGAGTCACCTAGTGCAG”, the binding signal was 3700 fluorescence intensity (a.u.). For “TCCTAATTTCCTCAACCTACAGGGTCACATGCAACAGACACGGAGTCACCTAGTGCAG” the value was 3260 fluorescence intensity (a.u.); for “CTCCAAGTCCAACCTGACGTGGGACCCACCTGTCATCGACCGGAGTCACCTAGTGCAG”, 4740 fluorescence intensity (a.u.); for “GGGTCCAGGATATGATAAGAATGATTTGGCACTCCATTGGCGGAGTCACCTAGTGCAG”, 3990 fluorescence intensity (a.u.). For “CTATTAGGTATGTGGTATCTATAACCCTGACAGTAGCCCCCGGAGTCACCTAGTGCAG” the value was 3300 fluorescence intensity (a.u.). For “GAGAGAAGAGGGGAAAAGAGAGAGGAGTTTGATGACGTGGCGGAGTCACCTAGTGCAG” the value was 39300 fluorescence intensity (a.u.); for “ATGCCAGCACGGCCTTGCTACTCGTCATCACATGGCCGCCCGGAGTCACCTAGTGCAG”, 4260 fluorescence intensity (a.u.). In the case of “GTGTAAAAGTTTTGACGTGTCACATCGGATATACGGACACCGGAGTCACCTAGTGCAG”, the binding signal was 15300 fluorescence intensity (a.u.). As to “CGCCGCGAGCTAAAACCGATGGTGACTTGGTGAGCCAGCCCGGAGTCACCTAGTGCAG”, the binding signal is 3930 fluorescence intensity (a.u.). On to “GGCCCTAACCCCACCGACCACCCGCGGCCCTCGTCTTCCTCGGAGTCACCTAGTGCAG”, for which the binding signal was 4210 fluorescence intensity (a.u.).

With “TCCTTCTATATGTTTGCACTTACGTGGGCCGTATTTATGCCGGAGTCACCTAGTGCAG”, the binding signal was 9040 fluorescence intensity (a.u.).

As to “GAGGGCTGAGCTCGTTGGGTACTTGGCCGTGCCGACGACGCGGAGTCACCTAGTGCAG”, the binding signal is 3400 fluorescence intensity (a.u.).

In the case of “CCTCGTCCCCGCCGCCGCCGCCGCCGTTAGATTGAAGCAGCGGAGTCACCTAGTGCAG”, the binding signal was 33500 fluorescence intensity (a.u.).

With “TGTCTCAATCCACACGAAAGCTATCCAGTTCGTCATCAAGCGGAGTCACCTAGTGCAG”, the binding signal was 3760 fluorescence intensity (a.u.). For the sequence “ACACATGCTGTTAAGAAGTATGGCTTTATACATTCTATGTCGGAGTCACCTAGTGCAG”, the binding signal is 31500 fluorescence intensity (a.u.). For “CCGCCACGTGGTGTATCCAATATGTTTGGTAATTGGCTACCGGAGTCACCTAGTGCAG” the value was 21600 fluorescence intensity (a.u.); for “AGTACTCTATACATGTGTCCAAATATTCGATGTGACATGGCGGAGTCACCTAGTGCAG”, 3470 fluorescence intensity (a.u.); for “CTCTTAGTATCGCTGATACGTGGGCCACCAGCCAATCATACGGAGTCACCTAGTGCAG”, 4080 fluorescence intensity (a.u.). In the case of “CGAGGCCCACGACGTGCCAGCTCAATCTCAAAGCCCAGAACGGAGTCACCTAGTGCAG” it was 3400 fluorescence intensity (a.u.); in that of “ACATTGTTCAGTCCACGTTTGCTTCGGTTCGCTTTTCCGTCGGAGTCACCTAGTGCAG”, 6370 fluorescence intensity (a.u.).

Regarding “TATCCAAAATTTCATCCAACTCTTGTGGGAGAAACGGACACGGAGTCACCTAGTGCAG”, the binding signal was 39500 fluorescence intensity (a.u.). On to “ACTTTGTCCACGCCATCCTCCAAGTCTCCAAACCTACACACGGAGTCACCTAGTGCAG”, for which the binding signal was 3810 fluorescence intensity (a.u.). In the case of “ATGATCCCGTTTACCACTCTTGAGCTGTCAATTATTTGGGCGGAGTCACCTAGTGCAG” it was 6000 fluorescence intensity (a.u.).

Source of the values: paper PMC7819943, “Rice protein-binding microarrays: a tool to detect cis-acting elements near promoter regions in rice”.
